Some of these results come from one statement about several compounds together.
What was measured:
Format in all cases: cell-based, rat
[1] = system: RBL-2H3 cell line; test: IgE-induced RBL-2H3 mast cell degranulation (Fcε receptor type I); conditions: 10 μM concentration; RBL-2H3 cells
Description: RBL-2H3 cell line of rat basophilic leukaemia (ATCC) was used for the investigation of inhibition of degranulation induced by the activation of Fcε receptor type I or calcium ionophors. RBL-2H3 cell line was cultivated in DMEM medium (Invitrogen Cat. No. 31966-021) with 10% of phoetal calf serum (Invitrogen Corporation) at 37° C., 5% CO2, 90% relative humidity. Cells were seeded in the same medium into 24-well plates, 50000 per well, and left to reach 80-90% of confluence.
Dilutions of compounds were prepared in DMEM medium without phenol red (Invitrogen Corporation) in concentrations from 200 μM to 1 μM. The medium was removed from the cells and the diluted of compounds were added to the wells with the exception of the positive and the negative control where pure DMEM medium was added. Subsequently,
1. for the IgE-induced degranulation by Fcs receptor type I, a solution of SPE-1 (dinitrophenyl specific IgE) antibodies (Sigma) and dinitrophenylalbumin (Sigma), both in a final concentration of 0.5 μg/mL,
In the case of the negative control wells, pure DMEM medium was added. The cells were incubated for one hour at 37° C., 5% CO2, and 90% relative humidity. Each dilution as well as the positive and the negative controls were performed in triplicate. The supernatant (50 μL) was transferred in duplicate to a 96-well plate. Thereto 100 μL of 50 mM sodium citrate buffer with 1 mg/mL para-nitrophenyl-N-acetyl-β-D-glucosaminide (Calbiochem) were added and it was incubated for 1 hour at 37° C. The reaction was stopped with 100 μL of a saturated sodium carbonate solution. The absorbance was measured at 405 μm. The percentage of inhibition was expressed by the formula:
% inhibition=(1−(OD405 sample−OD405negative control)/(OD405positive control−OD405negative control))×100.

[2] = system: leukotriene B4 production; test: Leukotriene B4 (LTB4) inhibition assay in A23187 stimulated RBL-2H3 cells; conditions: 10 μM
[3] = system: RBL-2H3 cell line; test: Ca2+-induced RBL-2H3 mast cell degranulation (calcium ionophore A23187); conditions: 10 μM concentration, RBL-2H3 cells

Cc1ccc(C(C)C)c2c(O)c(C(C(=O)O)c3c(O)c4c(C(C)C)ccc(C)c4oc3=O)c(=O)oc12 [Example 7]
inhibition of IgE-induced degranulation by Fcs receptor type I [1]: significant inhibitory activity | inhibition of LTB4 production [2]: significant inhibition

O=C(O)C(c1c(O)c2ccc([N+](=O)[O-])cc2oc1=O)c1c(O)c2ccc([N+](=O)[O-])cc2oc1=O [Example 12]
inhibition of IgE-induced degranulation by Fcs receptor type I [1]: significant inhibitory activity

O=C(OCCO)C(c1c(O)c2cc(Cl)cc(Cl)c2oc1=O)c1c(O)c2cc(Cl)cc(Cl)c2oc1=O [Example 53]
inhibition of IgE-induced degranulation by Fcs receptor type I [1]: significant inhibitory activity

O=c1oc2ccccc2c(O)c1C(c1c[nH]cn1)c1c(O)c2ccccc2oc1=O [Example 62]
inhibition of IgE-induced degranulation by Fcs receptor type I [1]: significant inhibitory activity

O=c1oc2ccccc2c(O)c1C(c1cccc(Cl)c1)c1c(O)c2ccccc2oc1=O [Example 66]
inhibition of IgE-induced degranulation by Fcs receptor type I [1]: significant inhibitory activity | inhibition of Ca2+-induced degranulation by means of a calcium ionophore [3]: significant inhibitory activity | inhibition of LTB4 production [2]: significant inhibition

O=c1oc2ccccc2c(O)c1C(c1c(O)c2ccccc2oc1=O)c1cccc2ccccc12 [Example 69]
inhibition of IgE-induced degranulation by Fcs receptor type I [1]: significant inhibitory activity | inhibition of Ca2+-induced degranulation by means of a calcium ionophore [3]: significant inhibitory activity | inhibition of LTB4 production [2]: significant inhibition

O=c1oc2ccccc2c(O)c1C(c1ccccn1)c1c(O)c2ccccc2oc1=O [Example 73]
inhibition of IgE-induced degranulation by Fcs receptor type I [1]: significant inhibitory activity | inhibition of Ca2+-induced degranulation by means of a calcium ionophore [3]: significant inhibitory activity | inhibition of LTB4 production [2]: significant inhibition

COc1ccc(C(c2c(O)c3ccccc3oc2=O)c2c(O)c3ccccc3oc2=O)cc1Br [Example 75]
inhibition of IgE-induced degranulation by Fcs receptor type I [1]: significant inhibitory activity | inhibition of Ca2+-induced degranulation by means of a calcium ionophore [3]: significant inhibitory activity | inhibition of LTB4 production [2]: significant inhibition

O=c1oc2ccccc2c(O)c1C(c1ccc(F)c(Cl)c1)c1c(O)c2ccccc2oc1=O [Example 76]
inhibition of IgE-induced degranulation by Fcs receptor type I [1]: significant inhibitory activity | inhibition of Ca2+-induced degranulation by means of a calcium ionophore [3]: significant inhibitory activity | inhibition of LTB4 production [2]: significant inhibition

CCOc1cccc(C(c2c(O)c3ccccc3oc2=O)c2c(O)c3ccccc3oc2=O)c1 [Example 77]
inhibition of IgE-induced degranulation by Fcs receptor type I [1]: significant inhibitory activity | inhibition of Ca2+-induced degranulation by means of a calcium ionophore [3]: significant inhibitory activity | inhibition of LTB4 production [2]: significant inhibition

O=c1oc2ccccc2c(O)c1C(c1cccc(O)c1)c1c(O)c2ccccc2oc1=O [Example 78]
inhibition of IgE-induced degranulation by Fcs receptor type I [1]: significant inhibitory activity | inhibition of LTB4 production [2]: significant inhibition

O=c1oc2ccccc2c(O)c1C(c1cccc(Oc2ccccc2)c1)c1c(O)c2ccccc2oc1=O [Example 79]
inhibition of IgE-induced degranulation by Fcs receptor type I [1]: significant inhibitory activity

COc1cc(C(c2c(O)c3ccccc3oc2=O)c2c(O)c3ccccc3oc2=O)ccc1OCc1ccccc1 [Example 80]
inhibition of IgE-induced degranulation by Fcs receptor type I [1]: significant inhibitory activity | inhibition of Ca2+-induced degranulation by means of a calcium ionophore [3]: significant inhibitory activity | inhibition of LTB4 production [2]: significant inhibition

CSc1ccc(C(c2c(O)c3ccccc3oc2=O)c2c(O)c3ccccc3oc2=O)cc1 [Example 81]
inhibition of IgE-induced degranulation by Fcs receptor type I [1]: significant inhibitory activity | inhibition of LTB4 production [2]: significant inhibition

O=c1oc2ccccc2c(O)c1C(c1cc(Br)cs1)c1c(O)c2ccccc2oc1=O [Example 82]
inhibition of IgE-induced degranulation by Fcs receptor type I [1]: significant inhibitory activity | inhibition of Ca2+-induced degranulation by means of a calcium ionophore [3]: significant inhibitory activity | inhibition of LTB4 production [2]: significant inhibition

CC(C)Oc1ccc(C(c2c(O)c3ccccc3oc2=O)c2c(O)c3ccccc3oc2=O)cc1 [Example 85]
inhibition of IgE-induced degranulation by Fcs receptor type I [1]: significant inhibitory activity

Cc1ccc(C(c2c(O)c3ccccc3oc2=O)c2c(O)c3ccccc3oc2=O)o1 [Example 88]
inhibition of IgE-induced degranulation by Fcs receptor type I [1]: significant inhibitory activity | inhibition of Ca2+-induced degranulation by means of a calcium ionophore [3]: significant inhibitory activity | inhibition of LTB4 production [2]: significant inhibition

COc1cc(C(c2c(O)c3ccccc3oc2=O)c2c(O)c3ccccc3oc2=O)cc(OC)c1OC [Example 89]
inhibition of IgE-induced degranulation by Fcs receptor type I [1]: significant inhibitory activity | inhibition of Ca2+-induced degranulation by means of a calcium ionophore [3]: significant inhibitory activity

O=c1oc2ccc(Br)cc2c(O)c1C(c1ccccc1)c1c(O)c2cc(Br)ccc2oc1=O [Example 93]
inhibition of IgE-induced degranulation by Fcs receptor type I [1]: significant inhibitory activity | inhibition of LTB4 production [2]: significant inhibition

O=c1oc2ccc(Cl)cc2c(O)c1C(c1ncc[nH]1)c1c(O)c2cc(Cl)ccc2oc1=O [Example 94]
inhibition of IgE-induced degranulation by Fcs receptor type I [1]: significant inhibitory activity | inhibition of Ca2+-induced degranulation by means of a calcium ionophore [3]: significant inhibitory activity | inhibition of LTB4 production [2]: significant inhibition

Cc1cc2oc(=O)c(C(c3ncc[nH]3)c3c(O)c4cc(Cl)c(C)cc4oc3=O)c(O)c2cc1Cl [Example 116]
inhibition of IgE-induced degranulation by Fcs receptor type I [1]: significant inhibitory activity | inhibition of Ca2+-induced degranulation by means of a calcium ionophore [3]: significant inhibitory activity | inhibition of LTB4 production [2]: significant inhibition

Cc1ccc2oc(=O)c(C(c3cccnc3)c3c(O)c4cc(C)ccc4oc3=O)c(O)c2c1 [Example 144]
inhibition of IgE-induced degranulation by Fcs receptor type I [1]: significant inhibitory activity | inhibition of Ca2+-induced degranulation by means of a calcium ionophore [3]: significant inhibitory activity | inhibition of LTB4 production [2]: significant inhibition

Cc1ccc2oc(=O)c(C(c3ccco3)c3c(O)c4cc(C)ccc4oc3=O)c(O)c2c1 [Example 146]
inhibition of IgE-induced degranulation by Fcs receptor type I [1]: significant inhibitory activity

Cc1ccc2oc(=O)c(C(c3ccc(C(F)(F)F)cc3)c3c(O)c4cc(C)ccc4oc3=O)c(O)c2c1 [Example 148]
inhibition of IgE-induced degranulation by Fcs receptor type I [1]: significant inhibitory activity | inhibition of Ca2+-induced degranulation by means of a calcium ionophore [3]: significant inhibitory activity | inhibition of LTB4 production [2]: significant inhibition

Cc1ccc2oc(=O)c(C(c3ccccc3)c3c(O)c4cc(C)ccc4oc3=O)c(O)c2c1 [Example 151]
inhibition of IgE-induced degranulation by Fcs receptor type I [1]: significant inhibitory activity

Cc1ccc(C(C)C)c2c(O)c(C3C(=O)Oc4c3c(=O)oc3c(C)ccc(C(C)C)c43)c(=O)oc12 (stereo not drawn) [Example 268]
inhibition of IgE-induced degranulation by Fcs receptor type I [1]: significant inhibitory activity | inhibition of LTB4 production [2]: significant inhibition

O=c1oc2cc(Cl)ccc2c(O)c1C1COc2c1c(=O)oc1cc(Cl)ccc21 (stereo not drawn) [Example 284]
inhibition of IgE-induced degranulation by Fcs receptor type I [1]: significant inhibitory activity

CC(C)c1cccc2c(O)c(C(c3ccccc3)c3c(O)c4cccc(C(C)C)c4oc3=O)c(=O)oc12 [Example 354]
inhibition of IgE-induced degranulation by Fcs receptor type I [1]: significant inhibitory activity

Source: patent publication US20080153872A1, “Bis-(Coumarin) Compounds With Anti-Inflammatory Activity” (priority 2005, published 2008)
